Results are given in words; binding and its absence hold for the method and conditions named. In cells and extracts the contact can be indirect. Some binding calls cover weakened binding; strength is not graded here.

Sequences of proteins named here, by UniProt entry; tags and fusion partners are left off.
UniProt P06748: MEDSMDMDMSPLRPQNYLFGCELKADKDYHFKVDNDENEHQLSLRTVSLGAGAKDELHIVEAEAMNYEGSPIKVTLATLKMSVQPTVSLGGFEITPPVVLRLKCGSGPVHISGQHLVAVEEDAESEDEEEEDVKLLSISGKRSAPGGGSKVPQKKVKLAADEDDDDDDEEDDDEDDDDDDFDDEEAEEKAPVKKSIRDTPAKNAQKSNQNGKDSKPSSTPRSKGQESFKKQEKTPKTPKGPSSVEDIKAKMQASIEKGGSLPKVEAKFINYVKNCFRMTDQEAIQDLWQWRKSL
UniProt Q9GZP8: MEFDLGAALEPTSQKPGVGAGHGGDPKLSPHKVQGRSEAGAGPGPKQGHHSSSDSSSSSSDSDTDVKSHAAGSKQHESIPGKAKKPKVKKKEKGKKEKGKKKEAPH

For test [1], the target named is Nucleophosmin (NPM1), endogenous (human (endogenous in BxPC-3)) (UniProt P06748). Kind of test: co-IP; endogenous proteins of BxPC-3 cells; IP by anti-NPM1, Western blot.
For test [2], the target named is GFP-tagged IMUP (immortalization-upregulated protein) (UniProt Q9GZP8). The test is described as follows: co-IP; BxPC-3 cells transfected with GFP-tagged IMUP; IP by GFP beads, Western blot. A general note: In western blotting, separated proteins are transferred to a membrane and probed.

Regarding “Immortalization-upregulated protein (IMUP), endogenous (from UniProt Q9GZP8 1-106)”, the binding result in test [1] is reported as “binds”.

As to “Nucleophosmin (NPM1), endogenous (from UniProt P06748 1-294)”, in test [2], the binding result is reported as “binds”.

(Values after publication PMC10547647.)
